Test results: US7858322B2, “Method of determining inhibition of binding to TRPM7 protein” (NoNo, Inc., priority 2003, dated 2010)
For some of these results: At least one peptide structure holds a part that was inferred or is arguable (an end, a ring closure or a residue). For some of these results: At least one compound was matched to its structure with a doubt left. Residues, ends and D or L forms follow the SMILES beside them. *: point of attachment. Biotin = O=C1N[C@H]2[C@H](CS[C@H]2CCCCC(=O)*)N1

By UniProt entry, the sequences of proteins in these tests, tags left out. Chains listed by the source or under a name are the forms on record and can include a tag or linker.
UniProt O94759, whole entry: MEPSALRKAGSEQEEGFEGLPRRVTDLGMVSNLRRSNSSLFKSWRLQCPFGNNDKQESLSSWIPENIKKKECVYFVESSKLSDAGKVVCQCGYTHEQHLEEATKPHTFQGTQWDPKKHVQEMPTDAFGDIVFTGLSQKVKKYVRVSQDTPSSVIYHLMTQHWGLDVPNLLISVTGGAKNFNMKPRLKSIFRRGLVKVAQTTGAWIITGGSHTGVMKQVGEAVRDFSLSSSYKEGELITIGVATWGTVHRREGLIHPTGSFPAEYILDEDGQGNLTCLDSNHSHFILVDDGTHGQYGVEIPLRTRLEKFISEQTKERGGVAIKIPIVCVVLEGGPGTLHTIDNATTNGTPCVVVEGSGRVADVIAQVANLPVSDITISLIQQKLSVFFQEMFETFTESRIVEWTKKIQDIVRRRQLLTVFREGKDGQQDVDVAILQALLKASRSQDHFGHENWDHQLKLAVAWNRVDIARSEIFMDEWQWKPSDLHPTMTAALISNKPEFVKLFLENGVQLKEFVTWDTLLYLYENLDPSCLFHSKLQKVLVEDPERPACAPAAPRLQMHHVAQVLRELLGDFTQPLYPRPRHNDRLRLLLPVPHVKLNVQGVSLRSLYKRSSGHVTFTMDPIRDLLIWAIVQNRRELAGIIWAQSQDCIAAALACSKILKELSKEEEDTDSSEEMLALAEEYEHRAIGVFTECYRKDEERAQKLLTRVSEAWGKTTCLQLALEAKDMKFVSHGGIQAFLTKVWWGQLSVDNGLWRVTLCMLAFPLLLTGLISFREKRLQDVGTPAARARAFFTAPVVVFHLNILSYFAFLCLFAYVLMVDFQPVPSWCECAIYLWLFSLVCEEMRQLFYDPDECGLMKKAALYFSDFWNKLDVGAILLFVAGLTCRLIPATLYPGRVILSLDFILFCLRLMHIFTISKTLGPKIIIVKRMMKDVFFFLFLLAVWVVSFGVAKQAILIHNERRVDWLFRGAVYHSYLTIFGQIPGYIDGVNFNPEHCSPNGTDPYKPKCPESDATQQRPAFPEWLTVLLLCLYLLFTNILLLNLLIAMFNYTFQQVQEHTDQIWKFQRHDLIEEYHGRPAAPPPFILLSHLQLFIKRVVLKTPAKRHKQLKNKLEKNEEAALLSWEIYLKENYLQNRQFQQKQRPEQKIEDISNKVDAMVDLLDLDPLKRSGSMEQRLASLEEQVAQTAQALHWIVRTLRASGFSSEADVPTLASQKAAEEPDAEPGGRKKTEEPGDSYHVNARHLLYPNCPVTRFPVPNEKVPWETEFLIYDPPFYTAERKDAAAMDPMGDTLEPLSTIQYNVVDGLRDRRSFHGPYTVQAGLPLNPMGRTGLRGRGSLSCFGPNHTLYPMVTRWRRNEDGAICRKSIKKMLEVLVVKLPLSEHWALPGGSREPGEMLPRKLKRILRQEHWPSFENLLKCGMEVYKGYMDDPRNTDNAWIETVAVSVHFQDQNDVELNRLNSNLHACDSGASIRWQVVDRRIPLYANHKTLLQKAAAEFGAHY
UniProt Q8TEW0, with tags, fused parts or gaps R682S: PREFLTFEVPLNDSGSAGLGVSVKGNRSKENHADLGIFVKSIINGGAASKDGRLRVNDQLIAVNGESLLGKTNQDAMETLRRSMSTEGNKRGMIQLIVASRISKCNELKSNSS

What was measured:
RIM2 d1 = biological target: T1, RIM2 d1 (Homo sapiens, UniProt Q9UQ26); experiment: G assays, titrations or binding assays of peptides; details: peptide demonstrated to bind RIM2 d1 in G assays
T1 construct: made in house; host or cells: E. coli (DH5α, BL21 or JM109)
T1 sequence (Q9UQ26 632-757): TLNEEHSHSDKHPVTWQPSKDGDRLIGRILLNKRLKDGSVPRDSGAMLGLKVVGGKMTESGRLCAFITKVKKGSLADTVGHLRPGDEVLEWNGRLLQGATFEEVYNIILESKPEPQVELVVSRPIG

ZO-1 d2 [1] = biological target: T2, ZO-1 d2 (Homo sapiens, UniProt Q07157, DEL264-264); experiment: G3 assay, binding of biotinylated peptide to GST-PDZ fusion; details: G3 titration
T2 construct: made in house; host or cells: E. coli (DH5α, BL21 or JM109)
T2 sequence (Q07157 with tags, fused parts or gaps DEL264-264): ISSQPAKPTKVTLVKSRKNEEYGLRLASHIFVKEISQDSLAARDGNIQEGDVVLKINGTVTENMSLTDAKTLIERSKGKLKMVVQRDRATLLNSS
Protocol: (§1) The G3 assay is identical to the G0 assay with the following exceptions. The peptides are typically present at 0.1 μM rather than 20 μM. The peptides are also pre-incubated with the HRP-streptavidin prior to adding to the assay plate. In the G0 assay, free peptide is incubated with the PDZ proteins prior to the addition of the HRP-streptavidin. Thus, for the G0 assay one can lose signal if the bound peptide dissociates from the PDZ protein prior to the addition of the HRP-streptavidin. In the G3 modified assay the HRP-streptavidin/peptide complex is added to the plate in one step, thus increasing the likelihood that all the bound peptide will be bound to HRP-streptavidin. The G3 modified assay increases the chance of observing weak interaactions.
(§2) Reagents and Supplies • Nunc MaxiSorp 96 well Immuno-plate, Nunc • PBS pH 7.4 (phosphate buffered saline, 8 g NaCl, 0.29 g KCl, 1.44 g Na2HPO4, 0.24 g KH2PO4, add H2O to 1 liter and pH 7.4; 0.2 μm filter) • Assay Buffer: 2% BSA in PBS (20 g of bovine serum albumin per liter PBS, fraction V, ICN Biomedicals, cat#IC15142983 • Goat anti-GST polyclonal Ab, stock 5 mg/ml, stored at 4° C., Amersham Pharmacia cat#27-4577-01 • Dilute 1:1000 in PBS, final concentration 5 μg/ml. • HRP-Streptavidin, 2.5 mg/2 ml stock stored at 4° C., Zymed cat#43-4323, dilute 1:2000 into Assay buffer, final concentration of 0.5 μg/ml • Wash Buffer, PBS • Biotinylated peptides (HPLC purified, stock solution stored in −20° C. freezer) • GST-PRISM proteins (stock stored at −80° C., after 1st thaw store in −10° C. freezer) • TMB (3,3′,5,5′, teramethylbensidine), tablets, Sigma cat.#T5525 • Per plate, dissolve 1 tablet in 1 ml DMSO, add 9 ml Citrate/Phosphate buffer pH 5.4 and 2 μL H2O2 • 0.18M H2SO4, Sigma cat.#S 1526 • 12-w multichannel pipettor & tips • 50 ml reagent reservoirs, Costar#4870 • 50, 15 ml polypropylene conical tubes • Costar Transtar 96 Costar #7605 • Transtar 96 Cartridge Costar #7610 • Molecular Devices microplate reader (450 & 650 nm filters) with SoftMax Pro software • When using reagents stored at or 4° C. or −20° C., remove & keep on ice
(§3) Protocol • 1. Coat plate with 100 μl of 5 μg/ml anti-GST, overnight at 4° C. • 2. Dump contents of plate & out tap dry on paper towels • 3. Block with 200 μl Assay Buffer for 2 hrs at room temperature • 4. Prepare proteins at 5 μg/ml in Assay Buffer • 5. Wash 3× with cold PBS (4° C.), avoiding letting the plates dry out • 6. Add proteins at 50 μl per well, incubate 1 to 2 hrs at 4° C. • 7. Prepare peptides to desired concentration in Assay Buffer • 8. Wash 3× with cold PBS (4° C.), avoiding letting the plates dry out • 9. Add HRP-Streptavidin/peptide complex [prepared by incubating for 20 minutes at room temperature HRP-Streptavidin (1:2000) with the desired biotin-peptide concentration for 20 minutes at room temperature] at 50 μl per well on ice • 10. Place at room temperature for exactly 30 minutes • 11. Promptly wash 5× with PBS at room temperature • 12. Add 100 μl/well TMB substrate (write time on plate) • 13. Incubate in dark at room temperature for a maximum of 30 minutes • 14. Read plate at 25 minutes (650 nm), optional • 15. Stop reaction with 100 μl of 0.18 M H2SO4, 30 minutes after adding TMB Take last reading at 450 nm soon after stopping reaction
(§4) The G3 assay was performed using 0.1 μM peptide representing 11 amino acids of Tat fused to the final 9 amino acids of TRPM7 ([…]; SEQ ID NO:258).
(§5) The G3 assay was performed on a subset of the PDZ domains as in Example II except that the concentration of peptide was 0.002 μM, […], 0.1 μM, 0.2 μM, 1 μM, and 2 μM.
(§6) to calculate the EC50 for the binding of the peptides to the PDZ domains.
(§7) FIGS. 10A and 10B show graphs of the titrations for the Peptide #1829 with ZO-1 d2 and for the Peptide #1839 with INADL d3.

INADL d3 = biological target: T3, INADL d3 (Homo sapiens, UniProt Q8NI35); experiment: as above; details: G3 titration
T3 construct: made in house; host or cells: E. coli (DH5α, BL21 or JM109)
T3 sequence (Q8NI35 with tags, fused parts or gaps): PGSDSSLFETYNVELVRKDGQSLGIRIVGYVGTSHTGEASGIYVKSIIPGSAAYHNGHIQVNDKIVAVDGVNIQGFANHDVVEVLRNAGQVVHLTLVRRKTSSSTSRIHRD
Protocol: as §1, §2, §3, §4, §5, §6, §7

ZO-1 d2 [2] = biological target: T2, ZO-1 d2; experiment: G assays, titrations or binding assays of peptides; details: peptide demonstrated to bind ZO-1 d2 in G assays
TRPM2 = TRPM2 (Homo sapiens, UniProt O94759); details: binding to carboxy-terminal NUDT9 Nudix hydrolase domain; cited from earlier work
PAR3 d3 = biological target: T4, PAR3 d3 (Homo sapiens, UniProt Q8TEW0, R682S); experiment: G assays, titrations or binding assays of peptides; details: peptide demonstrated to bind PAR3 d3 in G assays
T4 construct: made in house; host or cells: E. coli (DH5α, BL21 or JM109)

SMILES	POZ domain bound (RIM2 d1)	ODmax (450 nm) (ZO-1 d2 [1])	ODmax (450 nm) (INADL d3)	POZ domain bound (ZO-1 d2 [2])	Concentration gating TRPM2 (TRPM2) [mM]	POZ domain bound (PAR3 d3)
CC(C)[C@H](NC(=O)[C@@H]1CCCN1C(=O)[C@@H](NC(=O)[C@H](CCCCN)NC(=O)[C@H](CCCNC(=N)N)NC(=O)[C@H](CC(=O)O)NC(=O)CNC(=O)[C@H](CCCNC(=N)N)NC(=O)[C@H](C)NC(=O)[C@H](CCCNC(=N)N)NC(=O)[C@H](CCCNC(=N)N)NC(=O)[C@H](CCCNC(=N)N)NC(=O)[C@H](CCC(N)=O)NC(=O)[C@H](CCCNC(=N)N)NC(=O)[C@H](CCCNC(=N)N)NC(=O)[C@H](CCCCN)NC(=O)[C@H](CCCCN)NC(=O)[C@H](CCCNC(=N)N)NC(=O)CNC(=O)[C@H](Cc1ccc(O)cc1)NC(=O)CCCC[C@@H]1SC[C@@H]2NC(=O)N[C@@H]21)C(C)C)C(=O)O [Peptide 1841] (Biotin-YGRKKRRQRRRARGDRKVPV-OH)	RIM2 D1	2.10	0.20	ZO-1 D2		
NC(=O)c1ccc[n+]([C@@H]2O[C@H](COP(=O)([O-])OP(=O)(O)OC[C@H]3O[C@@H](n4cnc5c(N)ncnc54)[C@H](O)[C@@H]3O)[C@@H](O)[C@H]2O)c1 [NAD, nicotinamide adenine dinucleotide]					1	
CC[C@H](C)[C@H](NC(=O)[C@H](CCCCN)NC(=O)[C@H](CCCNC(=N)N)NC(=O)[C@H](CC(=O)O)NC(=O)CNC(=O)[C@H](CCCNC(=N)N)NC(=O)[C@H](C)NC(=O)[C@H](CCCNC(=N)N)NC(=O)[C@H](CCCNC(=N)N)NC(=O)[C@H](CCCNC(=N)N)NC(=O)[C@H](CCC(N)=O)NC(=O)[C@H](CCCNC(=N)N)NC(=O)[C@H](CCCNC(=N)N)NC(=O)[C@H](CCCCN)NC(=O)[C@H](CCCCN)NC(=O)[C@H](CCCNC(=N)N)NC(=O)CNC(=O)[C@H](Cc1ccc(O)cc1)NC(=O)CCCC[C@@H]1SC[C@@H]2NC(=O)N[C@@H]21)C(=O)N[C@@H](CCCNC(=N)N)C(=O)N[C@H](C(=O)O)C(C)C [Peptide 1836] (Biotin-YGRKKRRQRRRARGDRKIRV-OH)	RIM2 D1	2.60	0.30			
CC[C@H](C)[C@H](NC(=O)[C@H](CO)NC(=O)[C@@H](NC(=O)[C@H](C)NC(=O)[C@H](C)NC(=O)[C@@H](NC(=O)[C@H](C)NC(=O)[C@H](CCCNC(=N)N)NC(=O)[C@H](CCCNC(=N)N)NC(=O)[C@H](CCCNC(=N)N)NC(=O)[C@H](CCC(N)=O)NC(=O)[C@H](CCCNC(=N)N)NC(=O)[C@H](CCCNC(=N)N)NC(=O)[C@H](CCCCN)NC(=O)[C@H](CCCCN)NC(=O)[C@H](CCCNC(=N)N)NC(=O)CNC(=O)[C@H](Cc1ccc(O)cc1)NC(=O)CCCC[C@@H]1SC[C@@H]2NC(=O)N[C@@H]21)C(C)C)[C@@H](C)O)C(=O)N[C@@H](CC(N)=O)C(=O)N[C@@H](CC(C)C)C(=O)O [Peptide 1791] (Biotin-YGRKKRRQRRRAVAATSINL-OH)	RIM2 D1	2.50	0.09	ZO-1 D2		PAR3 D3
